In publication PMC7315810:

Target: T1, MRTF-A (myocardin-related transcription factor A), endogenous in macrophages (mouse (endogenous in RAW264 and BMDMs)) (UniProt Q8K4J6)
T1 sequence: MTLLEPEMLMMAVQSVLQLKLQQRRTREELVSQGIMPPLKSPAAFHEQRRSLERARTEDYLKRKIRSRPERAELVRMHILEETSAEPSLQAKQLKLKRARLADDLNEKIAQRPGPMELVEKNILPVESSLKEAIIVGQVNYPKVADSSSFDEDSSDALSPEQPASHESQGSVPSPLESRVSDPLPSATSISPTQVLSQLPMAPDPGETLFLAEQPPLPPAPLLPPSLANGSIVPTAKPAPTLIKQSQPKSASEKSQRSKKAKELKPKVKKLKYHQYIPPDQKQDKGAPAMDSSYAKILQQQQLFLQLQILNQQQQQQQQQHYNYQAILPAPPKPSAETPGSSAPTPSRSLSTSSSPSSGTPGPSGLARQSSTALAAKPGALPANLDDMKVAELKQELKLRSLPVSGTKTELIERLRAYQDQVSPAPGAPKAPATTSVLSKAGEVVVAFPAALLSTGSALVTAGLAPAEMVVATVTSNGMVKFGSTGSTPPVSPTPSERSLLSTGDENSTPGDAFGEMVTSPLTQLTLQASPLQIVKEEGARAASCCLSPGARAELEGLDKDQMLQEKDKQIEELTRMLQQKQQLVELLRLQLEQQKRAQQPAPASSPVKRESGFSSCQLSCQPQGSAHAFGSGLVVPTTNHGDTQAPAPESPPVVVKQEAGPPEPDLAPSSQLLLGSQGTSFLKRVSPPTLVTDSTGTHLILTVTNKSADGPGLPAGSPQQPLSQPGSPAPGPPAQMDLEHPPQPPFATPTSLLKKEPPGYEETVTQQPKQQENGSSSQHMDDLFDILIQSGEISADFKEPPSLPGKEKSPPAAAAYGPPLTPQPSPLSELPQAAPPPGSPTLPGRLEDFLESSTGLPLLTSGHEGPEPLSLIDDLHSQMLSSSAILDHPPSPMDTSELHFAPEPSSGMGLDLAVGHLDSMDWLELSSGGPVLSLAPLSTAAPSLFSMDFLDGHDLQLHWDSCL
Experiment: Re-ChIP; RAW264 cells or primary BMDMs exposed to hypoxia-reoxygenation; Re-ChIP with indicated antibodies; iNOS promoter (GAPDH promoter as control)

NF-κB, endogenous in macrophages (mouse (endogenous in RAW264 and BMDMs))
binding: binds

No constants are given. Whether binding was seen depends on the method and setting. Binding calls can cover weak binding; strength is not graded here.
